From patent US7964369
No constants are given. Whether binding was seen depends on the method and setting. Binding seen in cells or lysates may run through a third protein. Some results given as binding are weak or reduced against the parent protein; the word gives no strength. Where a sequence is shown, tags or fusion partners need not be part of it.

The chains behind the UniProt entries cited, without tags or fusion partners.
UniProt Q96FW1: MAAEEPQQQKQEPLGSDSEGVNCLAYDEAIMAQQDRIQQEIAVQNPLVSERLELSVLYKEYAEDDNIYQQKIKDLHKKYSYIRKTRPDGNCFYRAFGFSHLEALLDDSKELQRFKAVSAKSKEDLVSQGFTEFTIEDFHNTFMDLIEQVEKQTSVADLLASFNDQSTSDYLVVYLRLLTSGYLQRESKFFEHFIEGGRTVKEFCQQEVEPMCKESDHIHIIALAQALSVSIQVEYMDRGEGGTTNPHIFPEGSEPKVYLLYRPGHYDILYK

Key:
DOG-His (human) [1] = target: DOG-His (human) (UniProt Q96FW1); assay: co-immunoprecipitation from 293 cells, anti-HA IP
DOG-His (human) [2] = target: DOG-His (human) (UniProt Q96FW1); assay: co-immunoprecipitation, summed up in the discussion of Example 1
DOG-His (human) [3] = target: DOG-His (human) (UniProt Q96FW1); assay: co-immunoprecipitation from 293 cells (FIG. 7 legend)
DOG-His (human) [4] = target: DOG-His (human) (UniProt Q96FW1); assay: co-immunoprecipitation from 293 cells with an antibody to tagged USP8
DOG-His (human) [5] = target: DOG-His (human) (UniProt Q96FW1); assay: co-precipitation in co-transfected HEK 293 cells after bacterial two-hybrid
DOG-His (human) [6] = target: DOG-His (human) (UniProt Q96FW1); assay: two-hybrid and co-immunoprecipitation, summed up in the discussion of Example 1

Measured: binding

B1: catalytically inactive USP8 (C748A), HA-tagged (enzyme, mouse, UniProt Q80U87 1-1080, looked up, not shown: small tags and cut ends)
chain: MPAVASVPKELYLSSSLKDLNKKTEVKPEKTSTKNYIHSAQKIFKTAEECRLDRDEERAYVLYMKYVAVYNLIKKRPDFKQQQDYYLSILGPANIKKAIEEAERLSESLKLRYEEAEVRKQLEEKDRREEEQLQQQKRQEMGREDSGAAAKRSVENLLDSKTKTQRINGEKSEGAAAAERGAITAKELYTMMMDKNTSLIIMDARKIQDYQHSCILDSLSVPEEAISPGVTASWIEANLSDDSKDTWKKRGSVDYVVLLDWFSSAKDLLLGTTLRSLKDALFKWESKTVLRHEPLVLEGGYENWLLCYPQFTTNAKVTPPPRSRAEEVSVSLDFTYPSLEEPVPSKLPTQMPPPPIETNEKALLVTDQDEKLRLSTQPALAGPGAAPRAEASPIIQPAPATKSVPQVDRTKKPSVKLPEDHRIKSENTDQSGRVLSDRSTKPVFPSPTTMLTDEEKARIHQETALLMEKNKQEKELWDKQQKEQKEKLRREEQERKAGKTQDADERDSTENQHKAKDGQEKKDSKQTKTEDRELSADGAQEATGTQRQSKSEHEASDAKVPVEGKRCPTSEAQKRPADVSPASVSGELNAGKAQREPLTRARSEEMGRIVPGLPLGWAKFLDPITGTFRYYHSPTNTVHMYPPEMAPSSAPPSTPPTHKVKPQVPAERDREPSKLKRSYSSPDITQALQEEEKRRPAVTPMVNRENKPPCYPKAEISRLSASQIRNLNPVFGGSGPALTGLRNLGNTAYMNSILQCLCNAPHLADYFNRNCYQDDINRSNLLGHKGEVAEEFGIIMKALWTGQYRYISPKDFKVTIGKINDQFAGSSQQDSQELLLFLMDGLHEDLNKADNRKRHKEENNEHLDDLQAAEHAWQKHKQLNESIIVALFQGQFKSTVQCLTCRRRSRTFEAFMYLSLPLASTSKCTLQDCLRLFSKEEKLTDNNRFYCSHCRARRDSLKKIEIWKLPPVLLVHLKRFSYDGRWKQKLQTSVDFPLENLDLSQYVIGPKNSLKKYNLFSVSNHYGGLDGGHYTAYCKNAARQRWFKFDDHEVSDISVSSVRSSAAYILFYTSLGPRITDVAT
binds: DOG-His (human) [1] | DOG-His (human) [2]

B2: HA-USP8 (enzyme, mouse, UniProt Q80U87 1-1080, looked up, not shown: small tags and cut ends)
chain: MPAVASVPKELYLSSSLKDLNKKTEVKPEKTSTKNYIHSAQKIFKTAEECRLDRDEERAYVLYMKYVAVYNLIKKRPDFKQQQDYYLSILGPANIKKAIEEAERLSESLKLRYEEAEVRKQLEEKDRREEEQLQQQKRQEMGREDSGAAAKRSVENLLDSKTKTQRINGEKSEGAAAAERGAITAKELYTMMMDKNTSLIIMDARKIQDYQHSCILDSLSVPEEAISPGVTASWIEANLSDDSKDTWKKRGSVDYVVLLDWFSSAKDLLLGTTLRSLKDALFKWESKTVLRHEPLVLEGGYENWLLCYPQFTTNAKVTPPPRSRAEEVSVSLDFTYPSLEEPVPSKLPTQMPPPPIETNEKALLVTDQDEKLRLSTQPALAGPGAAPRAEASPIIQPAPATKSVPQVDRTKKPSVKLPEDHRIKSENTDQSGRVLSDRSTKPVFPSPTTMLTDEEKARIHQETALLMEKNKQEKELWDKQQKEQKEKLRREEQERKAGKTQDADERDSTENQHKAKDGQEKKDSKQTKTEDRELSADGAQEATGTQRQSKSEHEASDAKVPVEGKRCPTSEAQKRPADVSPASVSGELNAGKAQREPLTRARSEEMGRIVPGLPLGWAKFLDPITGTFRYYHSPTNTVHMYPPEMAPSSAPPSTPPTHKVKPQVPAERDREPSKLKRSYSSPDITQALQEEEKRRPAVTPMVNRENKPPCYPKAEISRLSASQIRNLNPVFGGSGPALTGLRNLGNTCYMNSILQCLCNAPHLADYFNRNCYQDDINRSNLLGHKGEVAEEFGIIMKALWTGQYRYISPKDFKVTIGKINDQFAGSSQQDSQELLLFLMDGLHEDLNKADNRKRHKEENNEHLDDLQAAEHAWQKHKQLNESIIVALFQGQFKSTVQCLTCRRRSRTFEAFMYLSLPLASTSKCTLQDCLRLFSKEEKLTDNNRFYCSHCRARRDSLKKIEIWKLPPVLLVHLKRFSYDGRWKQKLQTSVDFPLENLDLSQYVIGPKNSLKKYNLFSVSNHYGGLDGGHYTAYCKNAARQRWFKFDDHEVSDISVSSVRSSAAYILFYTSLGPRITDVAT
binds: DOG-His (human) [3] | DOG-His (human) [4] | DOG-His (human) [5] | DOG-His (human) [6]
